Test results from paper doi:10.1101/571315.
These are yes or no findings as the source states them, for the method shown. In cells and extracts the contact can be indirect. Some results given as binding are weak or reduced against the parent protein; the word gives no strength. One block for each molecule: values may come before it.

The chains behind the UniProt entries cited, without tags or fusion partners.
UniProt P39880: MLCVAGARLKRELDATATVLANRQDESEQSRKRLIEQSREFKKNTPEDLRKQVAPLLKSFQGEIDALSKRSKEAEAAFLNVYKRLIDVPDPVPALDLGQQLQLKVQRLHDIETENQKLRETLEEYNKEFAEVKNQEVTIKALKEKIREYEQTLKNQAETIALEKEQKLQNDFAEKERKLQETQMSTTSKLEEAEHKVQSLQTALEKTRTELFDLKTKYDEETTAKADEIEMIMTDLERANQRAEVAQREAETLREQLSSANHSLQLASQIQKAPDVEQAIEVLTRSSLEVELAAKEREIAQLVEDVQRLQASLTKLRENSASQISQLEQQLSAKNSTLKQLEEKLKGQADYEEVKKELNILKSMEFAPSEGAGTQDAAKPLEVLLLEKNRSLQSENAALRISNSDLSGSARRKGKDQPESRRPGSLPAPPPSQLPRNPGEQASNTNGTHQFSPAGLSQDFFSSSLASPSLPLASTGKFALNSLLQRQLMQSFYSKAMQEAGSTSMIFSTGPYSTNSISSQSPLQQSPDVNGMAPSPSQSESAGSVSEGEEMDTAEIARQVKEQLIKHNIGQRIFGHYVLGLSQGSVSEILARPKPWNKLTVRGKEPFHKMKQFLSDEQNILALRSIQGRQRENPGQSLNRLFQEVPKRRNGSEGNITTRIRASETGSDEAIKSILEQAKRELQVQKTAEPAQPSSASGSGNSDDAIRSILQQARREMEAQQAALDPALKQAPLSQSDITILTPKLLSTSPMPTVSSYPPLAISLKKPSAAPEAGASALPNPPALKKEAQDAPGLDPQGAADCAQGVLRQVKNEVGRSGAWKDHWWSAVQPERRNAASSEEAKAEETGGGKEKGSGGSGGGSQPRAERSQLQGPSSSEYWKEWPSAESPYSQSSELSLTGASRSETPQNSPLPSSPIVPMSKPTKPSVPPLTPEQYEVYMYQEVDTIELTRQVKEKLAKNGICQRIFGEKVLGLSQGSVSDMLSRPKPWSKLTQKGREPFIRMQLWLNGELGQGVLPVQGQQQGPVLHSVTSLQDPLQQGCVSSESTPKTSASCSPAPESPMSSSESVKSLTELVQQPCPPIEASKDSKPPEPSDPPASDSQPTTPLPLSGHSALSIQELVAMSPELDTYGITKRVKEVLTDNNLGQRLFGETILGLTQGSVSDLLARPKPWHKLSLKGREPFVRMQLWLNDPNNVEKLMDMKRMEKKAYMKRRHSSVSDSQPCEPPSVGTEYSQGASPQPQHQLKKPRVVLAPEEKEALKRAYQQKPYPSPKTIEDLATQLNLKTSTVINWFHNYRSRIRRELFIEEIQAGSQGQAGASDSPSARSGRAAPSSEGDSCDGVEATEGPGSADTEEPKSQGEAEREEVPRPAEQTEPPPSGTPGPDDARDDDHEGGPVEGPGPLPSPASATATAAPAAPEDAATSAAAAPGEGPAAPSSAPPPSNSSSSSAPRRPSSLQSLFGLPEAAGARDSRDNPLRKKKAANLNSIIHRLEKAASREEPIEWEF
UniProt Q04206: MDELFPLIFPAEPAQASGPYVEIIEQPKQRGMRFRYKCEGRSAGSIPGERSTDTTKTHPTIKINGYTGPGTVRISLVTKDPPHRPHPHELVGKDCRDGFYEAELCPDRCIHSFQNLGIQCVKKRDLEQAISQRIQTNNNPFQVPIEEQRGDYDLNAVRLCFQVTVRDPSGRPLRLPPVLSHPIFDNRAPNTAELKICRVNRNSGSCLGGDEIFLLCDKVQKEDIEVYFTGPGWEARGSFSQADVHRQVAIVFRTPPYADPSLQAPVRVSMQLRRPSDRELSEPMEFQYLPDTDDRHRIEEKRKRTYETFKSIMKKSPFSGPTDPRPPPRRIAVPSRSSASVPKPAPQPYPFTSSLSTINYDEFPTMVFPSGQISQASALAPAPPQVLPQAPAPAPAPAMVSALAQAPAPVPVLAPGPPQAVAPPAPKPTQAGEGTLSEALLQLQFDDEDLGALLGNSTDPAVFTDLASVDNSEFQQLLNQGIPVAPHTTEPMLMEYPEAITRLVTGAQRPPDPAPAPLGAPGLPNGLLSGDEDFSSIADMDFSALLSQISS

What was measured:
Experiment in all cases: co-IP
[1] = target: cut like homeobox 1 (CUX1) (human (endogenous in synovial fibroblasts)) (UniProt P39880)
[2] = target: NF-κB p65 (human (endogenous in synovial fibroblasts)) (UniProt Q04206)
[3] = target: T1, NF-κB p100/52 (human (endogenous in synovial fibroblasts)) (UniProt Q00653)
T1 sequence: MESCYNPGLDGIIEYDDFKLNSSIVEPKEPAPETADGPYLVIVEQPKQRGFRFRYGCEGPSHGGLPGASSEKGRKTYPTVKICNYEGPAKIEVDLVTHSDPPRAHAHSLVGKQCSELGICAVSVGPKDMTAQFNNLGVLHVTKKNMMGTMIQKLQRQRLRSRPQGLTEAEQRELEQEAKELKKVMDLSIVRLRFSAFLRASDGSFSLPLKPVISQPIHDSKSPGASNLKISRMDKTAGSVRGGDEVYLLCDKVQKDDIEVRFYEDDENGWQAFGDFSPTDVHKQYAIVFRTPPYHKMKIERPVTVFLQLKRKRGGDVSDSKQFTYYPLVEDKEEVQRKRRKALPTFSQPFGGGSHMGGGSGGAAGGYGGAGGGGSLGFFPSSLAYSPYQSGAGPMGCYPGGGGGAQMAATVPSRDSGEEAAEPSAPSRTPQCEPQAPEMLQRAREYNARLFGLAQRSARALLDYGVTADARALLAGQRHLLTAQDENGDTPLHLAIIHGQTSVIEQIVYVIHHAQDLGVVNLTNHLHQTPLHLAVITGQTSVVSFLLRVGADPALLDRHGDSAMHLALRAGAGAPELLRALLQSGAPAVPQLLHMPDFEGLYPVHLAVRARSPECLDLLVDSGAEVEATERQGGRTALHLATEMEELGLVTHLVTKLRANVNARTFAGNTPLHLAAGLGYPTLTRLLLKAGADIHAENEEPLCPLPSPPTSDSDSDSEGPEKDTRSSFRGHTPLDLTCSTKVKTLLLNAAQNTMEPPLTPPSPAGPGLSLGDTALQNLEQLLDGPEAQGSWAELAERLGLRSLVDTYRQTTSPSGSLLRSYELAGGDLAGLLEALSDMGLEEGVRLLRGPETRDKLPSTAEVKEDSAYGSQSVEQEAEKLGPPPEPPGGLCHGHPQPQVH

binding [1]: binds
Molecule: NF-κB p65 (from UniProt Q04206 1-551)

binding [2]: binds | binding [3]: binds
B1: atypical IκB factor IκBζ (protein, UniProt Q9BYH8 1-718)
chain: MIVDKLLDDSRGGEGLRDAAGGCGLMTSPLNLSYFYGASPPAAAPGACDASCSVLGPSAPGSPGSDSSDFSSASSVSSCGAVESRSRGGARAERQPVEPHMGVGRQQRGPFQGVRVKNSVKELLLHIRSHKQKASGQAVDDFKTQGVNIEQFRELKNTVSYSGKRKGPDSLSDGPACKRPALLHSQFLTPPQTPTPGESMEDVHLNEPKQESSADLLQNIINIKNECSPVSLNTVQVSWLNPVVVPQSSPAEQCQDFHGGQVFSPPQKCQPFQVRGSQQMIDQASLYQYSPQNQHVEQQPHYTHKPTLEYSPFPIPPQSPAYEPNLFDGPESQFCPNQSLVSLLGDQRESENIANPMQTSSSVQQQNDAHLHSFSMMPSSACEAMVGHEMASDSSNTSLPFSNMGNPMNTTQLGKSLFQWQVEQEESKLANISQDQFLSKDADGDTFLHIAVAQGRRALSYVLARKMNALHMLDIKEHNGQSAFQVAVAANQHLIVQDLVNIGAQVNTTDCWGRTPLHVCAEKGHSQVLQAIQKGAVGSNQFVDLEATNYDGLTPLHCAVIAHNAVVHELQRNQQPHSPEVQELLLKNKSLVDTIKCLIQMGAAVEAKDRKSGRTALHLAAEEANLELIRLFLELPSCLSFVNAKAYNGNTALHVAASLQYRLTQLDAVRLLMRKGADPSTRNLENEQPVHLVPDGPVGEQIRRILKGKSIQQRAPPY
